Results published in publication doi:10.1101/2022.03.27.485962.

Target: T1, BcsD with a hexa-histidine tag attached to the C-terminus (Komagataeibacter sucrofermentans JCM9730 (BPR2001)) (UniProt P0DTX1)
T1 sequence: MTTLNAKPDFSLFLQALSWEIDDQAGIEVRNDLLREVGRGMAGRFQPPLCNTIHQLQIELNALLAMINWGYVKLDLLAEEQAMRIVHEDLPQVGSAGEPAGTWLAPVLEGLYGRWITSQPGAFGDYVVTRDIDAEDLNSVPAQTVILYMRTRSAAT
Assay: pull-down

| Substance | binding |
| --- | --- |
| BcsAB complex with the activity-deficient mutation D333N on BcsA | binds |
| BcsAB complex with the activity-deficient mutation W373A on BcsA | binds |

Results are given in words; binding and its absence hold for the method and conditions named. In cells and extracts the contact can be indirect. Binding can be weak; no strength is given. Tags and fused reporters may be left off the sequences shown.
